{
  "source": "patent US12161695B2",
  "about": "(priority 2018, dated 2024)",
  "type_in_all_cases": "cell-based",
  "key": {"[1]": {"tested_on": "iGABAARI", "experiment": "whole-cell patch-clamp single-channel currents in β cells of intact human islets, iGABAARI", "settings": "ND donors, room temperature, kinetic model fit", "from_the_text": "(§1) Human islets were generously provided by the Nordic Network for Clinical Islet Transplantation, supported by EXODIAB and the Juvenile Diabetes Research Foundation. All procedures were approved by the regional ethics committee in Uppsala and informed consent obtained by appropriate measures from donors or their relatives. […]\n(§2) The whole-cell patch-clamp configuration was obtained on intact islets using the blind patch-clamp technique (Hamill et al., 1981; Jin et al., 2011; Neher and Sakmann, 1976) and single-channel currents were recorded at room temperature (20-22° C.) or at 34° C. […] The access resistance was monitored and if it changed by more than 25%, the recording was rejected. The single-channel parameters (amplitude, frequency/opening rate, conductance, open probability Po, mean current Imean and mean open time To) were analyzed by Channel3 (Nicholas Laver, Derek Laver, the University of Newcastle, Australia) and Clampfit 10.5 (Molecular Devices, USA). […]"}, "[2]": {"tested_on": "iGABAARII", "experiment": "whole-cell patch-clamp single-channel currents in β cells of intact human islets, iGABAARII", "settings": "ND donors, room temperature, kinetic model fit", "from_the_text": "as §1, §2"}, "[3]": {"tested_on": "iGABAARs in human pancreatic islet β cells", "settings": "human islets vs neuronal models", "from_the_text": "as §1, §2"}},
  "data": [
    {"smiles": "NCCCC(=O)O", "note": "[GABA, gamma-aminobutyric acid]", "values": [
      {"measurement": "apparent affinity for GABA (Ka)", "setting": "[1]", "value": 20, "unit": "nM"},
      {"measurement": "apparent affinity for GABA (Ka)", "setting": "[2]", "value": 65, "unit": "nM"},
      {"measurement": "affinity for GABA relative to models for neuronal GABAAR-mediated currents", "setting": "[3]", "value": 100, "unit": "fold"}
    ]}
  ]
}
